Assay results: PubChem BioAssay AID2685 (National Center for Advancing Translational Sciences (NCATS), 2010)
The other results are listed elsewhere or left out. These are further read-outs of the screen, such as a control signal, another cell line or another target. No call is given for them. The list favours compounds with an active or inconclusive main result. Words in brackets tell the shape of the fitted curve; partial curves, single points and poor fits give uncertain potencies.

Assay: qHTS Assay for Lipid Storage Modulators in Drosophila S3 Cells;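 for cell number change: cells counted by Cell Tracker Red CMTPX staining in the red channel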
Details: BODIPY lipid droplet fluorescence, 18-24 h; for cell number change: measured here: cell count max response, cells fed with added oleic acid
How it was run: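 Laser-scanning cytometry quantifies lipid droplet accumulation (500–530 nm total intensity; droplet/cell object ratio) in oleic acid-fed (400 uM added) Drosophila S3 cells treated with a concentration series. 20 uM Triacsin C defined 100% inhibition.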

[1] = measured here: lipid fluorescence (Fed channel) AC50, cells fed with added oleic acid
[2] = measured here: cell number channel AC50, cells fed with added oleic acid

SMILES	cell number change [%]	AC50 [1]	AC50 [2]
O=C(Oc1cccc(C(=O)N2CCOCC2)c1)c1ccc(Br)cc1	-8.06	5.8 nM [falling, full curve, poor fit]	
O=[N+]([O-])c1ccc(O)c(C=Nc2ccc3c(c2)OCO3)c1	-17.3	5170 nM [falling, partial curve]	
CC(C)C[C@H](CO)Nc1nc(N(C)c2cccc(Cl)c2)c2ncn(C(C)C)c2n1	-11.7	2060 nM [rising, partial curve, poor fit]	
COc1cccc(NC(=O)Cn2c(=O)n(CC3CCCO3)c(=O)c3ccccc32)c1 (stereo not drawn)		11600 nM [rising, partial curve]	
C=CCn1c(-c2csc(-c3ccc(Cl)cc3)n2)n[nH]c1=S	18.1	651 nM [rising, partial curve]	
CCn1ncc(C2=NOC(C(=O)Nc3cc(OC)c(Cl)cc3OC)C2)c1C (stereo not drawn)	42.3	580 nM [rising, partial curve]	1840 nM [rising, partial curve]
Cc1nn(CCc2n[nH]c(=S)n2-c2ccc(F)cc2)c(C)c1[N+](=O)[O-]	2.41	731 nM [rising, single point]	
CN(CCc1ccccn1)C(=O)Nc1ccc(F)cc1	-12.3	651 nM [rising, full curve]	
O=C1NCCN1Cc1ccc(F)cc1	15.8		
CC[C@H](C)[C@H](NC(N)=O)C(=O)NNC(=O)c1ccc(COc2cccc3cccnc23)cc1		130 nM [falling, full curve]	
Cc1ccc(S(=O)(=O)N(C)CC(=O)OCC(=O)NCCN2C(=O)CSC2=O)cc1	0.602	4.61 nM [falling, full curve, poor fit]	
FC(F)(F)c1ccnc(NCc2ccc(Cl)cc2)n1	-35.5		29100 nM [falling, single point]
CCOc1ccc2nc(NCCNS(=O)(=O)c3ccccc3)c(C#N)cc2c1	30.3		32600 nM [rising, single point]
O=c1cc2oc3cc(O)c(O)cc3c(-c3ccccc3O)c-2cc1O	-105	13000 nM [falling, partial curve]	29100 nM [falling, single point]
CCCc1c(C(=O)N/N=C/c2ccc(OCc3ccccc3)c(OC)c2)nnn1-c1nonc1N	-11.5	6510 nM [falling, single point]	
CCOCCCNc1ncnc2c1[nH]c1ccccc12	111	4110 nM [rising, partial curve]	8200 nM [rising, single point]
COc1cc(S(=O)(=O)N2CCC(N3CCCCC3)CC2)ccc1-n1cnnn1	-14.9	651 nM [falling, single point]	
C=CCn1c(=N)n(CC(O)COc2ccccc2OC)c2ccccc21 (stereo not drawn)	-18.4	7310 nM [falling, partial curve, poor fit]	
Cn1nccc1C(=O)Nn1cnnc1	1.75		
CC1(C)C([N+](=O)[O-])C(c2ccccc2O)NC(c2ccccc2O)C1[N+](=O)[O-] (stereo not drawn)	15		184 nM [rising, full curve, poor fit]

Sorted by length of the SMILES (falling): some entries from above
SMILES	cell number change [%]	AC50 [1]	AC50 [2]
CC(C)C[C@H](CO)Nc1nc(N(C)c2cccc(Cl)c2)c2ncn(C(C)C)c2n1	-11.7	2060 nM [rising, partial curve, poor fit]	
O=C(Oc1cccc(C(=O)N2CCOCC2)c1)c1ccc(Br)cc1	-8.06	5.8 nM [falling, full curve, poor fit]	
C=CCn1c(=N)n(CC(O)COc2ccccc2OC)c2ccccc21 (stereo not drawn)	-18.4	7310 nM [falling, partial curve, poor fit]	

(cont.)

SMILES	cell number change [%]	AC50 [1]	AC50 [2]
CCCSCCCNC(=O)c1ccc(C)c(NC(=O)C2=C(C)OCCS2)c1	-43		20600 nM [falling, single point]
COc1ccc2c(c1)c1nc3ccccc3nc1n2CCn1c(=O)oc2ccccc21		651 nM [rising, partial curve, poor fit]	651 nM [rising, single point]
CC(C)CCN1CC(O)=C(c2nc(-c3ccc(Cl)cc3)cs2)C1=N			517 nM [rising, full curve, poor fit]
NC(=O)C1CCN(C(=O)c2ccc(CS(=O)(=O)c3c(Cl)cccc3Cl)o2)CC1	20.6	1640 nM [rising, partial curve, poor fit]	
Cc1cccc(NC(=O)c2c(C)nn(-c3ccccc3)c2Cl)c1	29.4		
Cc1ccc2oc(=O)c3cc(C(=O)NCCCN4CC(C)CC(C)C4)sc3c2c1 (stereo not drawn)	21.2	1300 nM [rising, full curve]	
O=c1nc(NCc2ccccc2Cl)cn[nH]1	31.6		18400 nM [rising, partial curve, poor fit]
O=S(=O)(c1cnc[nH]1)N1CCN(c2ccccc2)CC1	-49.8	103 nM [falling, full curve]	326 nM [falling, full curve]
Cc1ccn(CCC(=O)N2CCc3ccccc32)n1		291 nM [falling, partial curve]	
Cc1ccccc1CCN(C(=O)Cn1nnc2ccccc21)C(C(=O)NC(C)(C)C)c1ccsc1 (stereo not drawn)	16.5	29100 nM [falling, single point]	
Cc1cc(C)n(-c2ccc(C(=O)N3CCC(CO)(Cc4ccccc4)CC3)cc2)n1	-16.7		
CCCC(=O)NC(C)C(c1cccs1)N1CCN(C)CC1 (stereo not drawn)	-9.04	16400 nM [falling, partial curve]	
CCCC[C@@H]1CN=C(N)N1CCc1cc(C(F)(F)F)cc(C(F)(F)F)c1	19.7	11600 nM [rising, single point]	
O=C(CS(=O)(=O)Cc1ccccc1)Nc1nc2c(s1)CCCC2	-13	6510 nM [rising, single point]	
COC(=O)c1nc2n(n1)C(c1ccc(OC)c(OC)c1)C(C(=O)OC1CCCCC1)=C(C)N2 (stereo not drawn)	22.7	2310 nM [rising, partial curve]	1460 nM [rising, partial curve]
Cc1c(/C(O)=C2/C(=O)C(=O)N(Cc3cccnc3)C2c2cccs2)cnn1-c1ccccc1 (stereo not drawn)	0.0661	18400 nM [rising, single point]	
Cc1c(CCC(=O)NCCCn2ccnc2)c(=O)oc2cc3occ(C(C)(C)C)c3cc12	-18.2		
COc1ccc(OC)c(NC(=O)C23CC4CC(C2)CC(n2cnc(Br)n2)(C4)C3)c1	7.6	7310 nM [rising, partial curve]	
CN(C)S(=O)(=O)c1ccc(C(=O)Nc2ccc(CN3CCCC3)cc2)cc1	-5.44		
O=C(CN1c2ccccc2Sc2ccccc21)N/N=C/c1ccc([N+](=O)[O-])cc1	15.3		164 nM [rising, full curve, poor fit]

SMILES	cell number change [%]	AC50 [1]	AC50 [2]
O=C(NCc1ccc2c(c1)OCO2)C1CC(c2cccc(Br)c2)=NO1 (stereo not drawn)	-17.2		
Cc1nc(-c2cnn(-c3ccccc3)c2)c2cc(C)oc2n1		326 nM [rising, full curve]	411 nM [rising, full curve]
O=C(NNC(=O)c1cc2cc3ccccc3nc2s1)c1cccc(C(F)(F)F)c1	5.46	29100 nM [rising, single point]	
O=S(=O)(NCC(c1ccco1)N1CCN(c2ccccc2F)CC1)c1ccc2c(c1)OCCO2 (stereo not drawn)		8200 nM [falling, full curve]	
CCc1c(C(=O)N2CCOCC2)csc1C	-13.9	1160 nM [falling, full curve, poor fit]	
Cc1nn(CC(=O)OC(C)C(=O)Nc2ccccc2[N+](=O)[O-])c(C)c1[N+](=O)[O-] (stereo not drawn)	11.8	517 nM [rising, full curve, poor fit]	
COCCNC(=O)/C(C#N)=C/c1cccc(NC(=O)c2ccccc2Cl)c1	-23.8		
O=C(COC(=O)C1CCN(S(=O)(=O)c2cccc3cccnc23)CC1)c1ccc([N+](=O)[O-])cc1	-50.5		18400 nM [falling, partial curve]
Cn1c(N)c(C(=O)COC(=O)CCC2CCCC2)c(=O)n(C)c1=O	13.8	651 nM [rising, single point]	
Cn1c(Sc2ccc(Br)cc2)c(C=O)c2ccccc21	-16.5	5170 nM [falling, partial curve]	2310 nM [falling, partial curve]
CC(C)(C)NC(=O)CN(C(=O)C1CSC(=O)C1)c1ccccc1F (stereo not drawn)	12.4		731 nM [rising, single point]
CCOc1ccc(N(CC(=O)N2CC=C(c3ccccc3)CC2)S(=O)(=O)c2c(C)noc2C)cc1	26.7	11600 nM [rising, single point]	
O=C(CC1SC(=O)N(c2ccccc2)C1=O)Nc1ccccc1 (stereo not drawn)	-15.8	82 nM [falling, full curve, poor fit]	
Cc1ccc(-n2c(C)nc3c(cnn3-c3ccccc3Cl)c2=O)cc1C	-12.5		517 nM [falling, full curve]
Cc1ccc(-c2csc(N3CCN(CCCn4c(-c5ccncc5)nc5ccccc54)CC3)n2)cc1	-23		
O=C(N/N=C/c1ccc(OCC2COCCO2)cc1)c1ccc(Br)cc1 (stereo not drawn)	80.2		20.6 nM [rising, full curve, poor fit]
CNc1nc(Nc2ccc([N+](=O)[O-])cc2)nc(OCC(F)(F)F)n1	6.22	184 nM [falling, full curve, poor fit]	
CNC(=S)N/N=C1\CC(c2ccccc2)Oc2ccccc21 (stereo not drawn)	28.5	35500 nM [rising, single point]	
O=C(/C=C/c1cccc([N+](=O)[O-])c1)OCC(=O)c1ccccc1	-4.78	4110 nM [falling, partial curve]	
COc1ccccc1N1CCN(C(=O)c2cc(-c3ccc(Cl)cc3)on2)CC1	35	5170 nM [rising, partial curve]	11600 nM [rising, partial curve, poor fit]
